# Primary screen of a compound library

The chains behind the UniProt entries cited, without tags or fusion partners.
UniProt E9BF75, entry or part of it: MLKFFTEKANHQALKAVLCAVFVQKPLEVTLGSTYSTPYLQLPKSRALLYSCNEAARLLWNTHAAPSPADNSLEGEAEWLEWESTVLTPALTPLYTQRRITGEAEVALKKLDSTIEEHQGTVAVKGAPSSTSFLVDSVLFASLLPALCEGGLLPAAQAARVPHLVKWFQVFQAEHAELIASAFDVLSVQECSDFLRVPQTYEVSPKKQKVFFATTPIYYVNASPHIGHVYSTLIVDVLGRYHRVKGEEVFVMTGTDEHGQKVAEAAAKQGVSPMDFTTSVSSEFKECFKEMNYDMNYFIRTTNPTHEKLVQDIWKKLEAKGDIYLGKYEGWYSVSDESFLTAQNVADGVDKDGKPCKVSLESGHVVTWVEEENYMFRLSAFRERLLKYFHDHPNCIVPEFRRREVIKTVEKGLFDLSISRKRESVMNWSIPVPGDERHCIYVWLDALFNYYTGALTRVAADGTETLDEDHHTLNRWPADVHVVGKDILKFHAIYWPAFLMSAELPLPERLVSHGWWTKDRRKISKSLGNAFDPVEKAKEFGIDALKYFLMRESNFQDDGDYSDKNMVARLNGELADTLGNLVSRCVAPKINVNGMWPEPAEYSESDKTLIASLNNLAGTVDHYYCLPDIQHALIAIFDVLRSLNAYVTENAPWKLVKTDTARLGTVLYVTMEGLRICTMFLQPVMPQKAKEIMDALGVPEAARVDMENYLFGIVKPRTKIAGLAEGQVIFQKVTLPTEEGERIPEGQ

Results are percentages, as filed. The record does not define 0% and 100%; most values in the screen are far below 50% and negative numbers occur (in some assays of this library far below -100). This is an unselected part of the compounds tested.

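Primary screen of methionyl-tRNA synthetase; the read-out is not stated. Target: Methionyl-tRNA synthetase (putative), Leishmania donovani (UniProt E9BF75). The test concentration is not given. Values are per cent inhibition. Of about 68,000 compounds tested this way, about 24 (0.035%) reached 50% or more in at least one test.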

For Cc1ccccc1C1CN(c2cnn(C)c(=O)c2Cl)CCO1 (stereo not given) the result was 6.738%.
For CC(C)(C)C(=O)Cn1nc(-c2ccccc2F)ccc1=O the result was 13.69%.
For COc1ccccc1C1Cn2c(C)cnc2CN1Cc1c[nH]nc1C (stereo not given) the result was 18.99%.
For Cc1cnn(CC2CCCCN2CCS(C)(=O)=O)c1 (stereo not given) the result was 17.63%.
For COc1cccc(CNC(=O)c2cccnc2N)c1 the result was 0%.
For CCC(=O)NCc1cc(Br)c(OC)c(OC)c1 the result was 15.61%.
For Cc1nc(C(C)C)sc1C(=O)NCCn1nc2ccccn2c1=O the result was 15.56%.
For COc1ccc(C(CC(=O)O)NC(=O)CCc2cccs2)cc1OC (stereo not given) the result was 4.715%.
For Cc1ccc(N2CCC(C(O)c3cccs3)CC2)nn1 (stereo not given) the result was 19.06%.
For CC(C)Cn1c(=O)n(CCn2cc(Cl)cn2)c2cc(C(=O)O)cnc21 the result was 16.84%.
For Nc1ccnc(C(=O)N2CCCC3(CCC(=O)N(C4CCCC4)C3)C2)c1 (stereo not given) the result was 11.6%.
For CCOCC(O)CNc1cncc(Br)c1 (stereo not given) the result was -1.42%.
For COc1cccc(C(=O)NS(=O)(=O)c2cccc(C#N)c2)c1 the result was 9.777%.
For Cc1cc(-c2ccc(C(=O)O)cc2)nc(C2CCN(C(C)C)CC2)n1 the result was 8.333%.
For Cc1cccc(NCc2nc(C)ccc2O)c1 the result was 11.76%.
For CCN(CC)C(CNS(=O)(=O)c1ccc(C(N)=O)cc1)c1ccco1 (stereo not given) the result was 10.63%.
For CC(C)C(NC(=O)c1ccc(Cl)cc1Cl)C(=O)Nc1cnn(C)c1 (stereo not given) the result was -1.934%.
For CCn1cc(-c2cc(C(F)F)nc3sc(C(N)=O)c(N)c23)c(C)n1 the result was 18.41%.
For Cc1cccc(COC[C@@H]2CC[C@H]3[C@H](CCN3C(=O)CC3CC3)O2)n1 the result was 17.58%.
For Cc1n[nH]c(C2CN(C(=O)c3cc4c(s3)CCC4)CCO2)n1 (stereo not given) the result was 21.69%.
For CCc1ccccc1OCCCN(C)C(=O)C1CCCN1C(N)=O (stereo not given) the result was 10.48%.
For Cn1cnc2c1CCN(CCOc1ccc(C#N)cc1)C2 the result was 13.25%.
For CN(C)C(=O)CN1CCc2onc(-c3ccccc3F)c2C1 the result was 3.846%.
For CCN(C(c1cccnc1)c1ccc(F)c(F)c1)S(C)(=O)=O (stereo not given) the result was -1.319%.
For CN1CC2(CCN(C(=O)c3ccc4c(=O)n(C)cnc4c3)CC2)CC1=O the result was 12.29%.
For Cn1cc(CCC(=O)N2CCCN(c3ncccc3C#N)CC2)cn1 the result was 6.838%.
For O=C(Nc1ccccn1)NC1CCN(c2ccccc2OC(F)F)C1 (stereo not given) the result was 18.43%.
For CN(CCCc1cnn(C)c1)C(=O)Nc1cccc2[nH]ncc12 the result was 6.849%.
For Cc1oc(C(=O)O)cc1S(=O)(=O)Nc1ccccc1F the result was 9.972%.
For Cc1ccccc1CC(C)(C)NC(=O)CCOc1cccc(C(N)=O)c1 the result was 13.32%.
For CCn1ccnc1CN1CCCC1c1c(C)nn(C)c1OC (stereo not given) the result was 0%.
For OCCN1CCC(CNCc2ccccc2OC(F)(F)F)CC1 the result was 14.74%.
For O=C(NCCSC1CCCC1)c1cc(C2CC2)on1 the result was 14.29%.
For OC(CN1CCN(Cc2nc(C3CC3)no2)CC1)c1ccccc1 (stereo not given) the result was 18.67%.
For COCCCNC(=O)Cc1cc(-c2ccc3c(c2)OCO3)on1 the result was -9.42%.
For Cc1ccc(N2CCC(C(=O)NC3CCc4nccn4C3)CC2)nc1 (stereo not given) the result was 7.186%.
For CC(C)(C)NC(=O)N1CCCn2nc(C(=O)Nc3ccccc3)cc2C1 the result was 10.72%.
For CC(=O)N[C@@H]1C[C@H](c2ccc(OCCO)cc2)OC2(CCOCC2)C1 the result was 8.387%.
For CCO[C@@H]1CO[C@@]2(CCN(Cc3ccc4c(c3)OCO4)C2)C1 the result was 8.403%.

For reference, 3 entries once more:

{"compound": "OCCN1CCC(CNCc2ccccc2OC(F)(F)F)CC1", "inhibition": 14.74}
{"compound": "Cc1oc(C(=O)O)cc1S(=O)(=O)Nc1ccccc1F", "inhibition": 9.972}
{"compound": "COCCCNC(=O)Cc1cc(-c2ccc3c(c2)OCO3)on1", "inhibition": -9.42}

Data taken from ChEMBL document CHEMBL3988442, “University of Dundee, Small-Polar-MMV Screening Library” (2021).